According to patent publication US20110224133A1:
Results are given in words; binding and its absence hold for the method and conditions named. For some of these results: In cells and extracts the contact can be indirect. Some binding calls cover weakened binding; strength is not graded here.

Protein sequences, listed by entry. Tags and fused reporters are not part of them.
UniProt Q9NT62: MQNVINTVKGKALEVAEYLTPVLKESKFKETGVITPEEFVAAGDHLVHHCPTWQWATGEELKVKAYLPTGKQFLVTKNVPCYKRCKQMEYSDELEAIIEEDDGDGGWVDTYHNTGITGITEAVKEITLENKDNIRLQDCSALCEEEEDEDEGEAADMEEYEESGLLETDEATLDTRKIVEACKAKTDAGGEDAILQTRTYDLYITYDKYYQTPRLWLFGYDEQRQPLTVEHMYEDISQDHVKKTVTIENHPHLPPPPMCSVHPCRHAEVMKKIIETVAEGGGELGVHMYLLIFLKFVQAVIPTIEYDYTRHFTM

Columns and labels:
GFP-Atg3 = GFP-Atg3 (UniProt Q9NT62); assay: co-immunoprecipitation with αFlag or αGFP from HEK293T cells
[1] = target: Atg3 clone from a cDNA library of EBV-transformed human B-lymphocytes (yeast two-hybrid prey) (human) (UniProt Q9NT62); assay: yeast two-hybrid screen
[2] = target: GST-Atg3 (human Atg3, full length) (human) (UniProt Q9NT62); assay: GST pulldown from HEK293T cells

| Substance | binding [2] | further results |
| --- | --- | --- |
| Flag-KSHV vFLIP (from UniProt F5HEZ4 1-188) |  | binding (GFP-Atg3): binds |
| Gal4-vFLIP fusion (yeast two-hybrid bait) (from UniProt F5HEZ4 1-188) |  | binding [1]: binds |
| KSHV vFLIP with the DED1 α2 helix deleted (from UniProt F5HEZ4 1-188) | binds |  |
| KSHV vFLIP with the DED2 α4 helix deleted (from UniProt F5HEZ4 1-188) | binds |  |
